Experimental data reported in PubChem BioAssay AID1347426 (Functional Genomics Laboratory (NCATS/FGL), 2020).
The whole screen tested about 31,000 sequences, of which about 1,400 (4.5%) were called active.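 How the source made its calls: active means median seed-adjusted z-score above 1 or below -1; inactive means the rest.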 The list shows a part of the results.

Assay: Novel Modifiers of Survival Motor Neuron (SMN) Protein: Gene Identification via Genome-wide siRNA Screen;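 further: luminescence tracks full-length SMN protein made from the SMN2 reporter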
Conditions: HEK293T SMN2-luciferase reporter, siRNA knockdown, 72 h; actives lie on both sides
Procedure, shortened: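 Luciferase signal, proportional to full-length SMN made from an SMN2 cDNA reporter in stable HEK293T cells, was read 72 h after siRNA reverse transfection. Values were expressed as MAD scores after non-targeting-control normalization and log10 conversion; seed analysis flagged off-targets.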

Sequence | median seed-adjusted z-score
ACAUGGAUAUGGAAUCUGUTT against 8-Mar | inactive: -0.106
GCAAUGACAAAGUAUCUAATT against HSD17B3 | inactive: 0.734
GGAUCGGGUUCUAAAGGAATT against HSPE1 | inactive: 0.0101
CCAGCAUUCUUGAUCGAGATT against DSG2 | inactive: -0.285
GGAUUUGCCGAAUUAACAATT against RELB | active: 1.16
GGCUACAAAUGGGUAAAGATT against ALG5 | inactive: 0.286
AACUCAUUGUGAAUAAGAATT against GPR110 | inactive: 0.0158
GAGGUUUCAUCAUUGCGGATT against TGM4 | inactive: -0.43
GAAACGAUGAAAUAAGAUATT against PTGS1 | inactive: 0.0458
GUUUAUGACGGGUACGAAATT against ECE2 | inactive: 0.794
GCUGUAUCCUCAUAGGAAATT against HES5 | inactive: -0.00853
CAACAGUUGUACUACUGAATT against RIOK3 | inactive: 0.0267
AAACACUACUCGCACCAGATT against HES3 | inactive: 0.284
GAUACGCCCUUAUAAUGCATT against ZBTB11 | inactive: -0.105
GCUUCGAAUUCACAAGUGUTT against SULF1 | inactive: -0.128
GGACAUGCUUCACAAUCGATT against MYH15 | inactive: -0.939
CCAUGGAUCACAACCGGAATT against AKAP8L | inactive: -0.334
GAUGCUGACUUAGAAGAAATT against RFPL4B | inactive: 0.92
CCAUCAAGGUCCAACCAGUTT against FREM3 | inactive: -0.565
GACAGGCCUUGGUCAAAAATT against CCND3 | inactive: -0.965
GGACUGAACCUGCAUACCATT against ARL3 | inactive: 0.551
GGAUACUGGGUAGAAAAUATT against ATG4B | inactive: -0.703

Sequence | median seed-adjusted z-score
GCAUUUCGUGGGAUGGUCUTT against PEBP1 | inactive: 0.641
CCUGAUACGUGACAAAGCATT against KLRB1 | inactive: -0.44
CCCUUGGUAUGGUACGCUUTT against SERPINB12 | inactive: -0.525
CAGUUAAAGGUCAAGAUAATT against PI3 | inactive: 0.493
UCCUUUUUGUGAUUUCUGUTT against UBE2C | inactive: 0
CAAGACUAUUUGUCUUUGATT against DHRS1 | inactive: 0
CCAUCGGAGUGAUUGCCUATT against CAMK1D | inactive: -0.0629
GGAUCAACAGUGUCAUGGATT against MYO1G | inactive: -0.907
GAAGAUCGCUUAAAGGAGATT against MPP3 | inactive: 0
GCUAUGAGGUUAUCAAGAATT against UGT2A1 | inactive: 0.213
GGCACUUACUUGUAAUGCUTT against LGR5 | inactive: 0
GACCUUGUAUUGAAGUUAATT against ACTG1 | inactive: -0.227
GGAUCUCACUCUCCCAGUUTT against GABRR1 | inactive: 0.286
GCAGAAUACCUGUUUCAAATT against TERF1 | inactive: 0.0114
GCAUCAACUUUGUGCAUGATT against PLTP | active: 1.09
GAAUUACGAUCACAAAGUUTT against KRR1 | inactive: -0.0353
CAUCAUUGCUUAAUCAACATT against ZNF267 | inactive: 0.381
GGCUUAAUAUUCAAGCUGATT against CCL1 | inactive: 0.537
GGAUUAUCUUGACAGUAUUTT against HSF2 | inactive: -0.0228
GAAGGAAGGGUAAGGGAAATT against NFKBIL1 | inactive: 0.282
GGGUUGCAGUUAACACUGUTT against MOBKL1A | inactive: 0.549
CCACUUUUGAGGACAGAGATT against CLCN4 | inactive: 0

Sequence | median seed-adjusted z-score
GAUCCAAUGUAAACGUGGATT against GRLF1 | inactive: 0.0307
GCAUAACUGUAGACUACAATT against ADAM32 | active: 1.75
CGACUAACCCACGAAGUAATT against DLG2 | inactive: 0.133
CCAGUACGGUGACAACUGUTT against CYP11B2 | inactive: 0.459
GUGAGAAACCCAAUCCUUUTT against PAFAH1B2 | inactive: 0.0991
CGACGACUGUCAAUGCCUUTT against PHEX | inactive: -0.0314
CUGUAAAUGUGAUUACUGUTT against ZNF18 | inactive: -0.27
CAGUGGAAUCGAUCGUAUATT against KCNJ2 | inactive: -0.0834
GGAUUAUUGCUCGGCUUUATT against GBP5 | inactive: -0.194
GACCGAACCUCUGAAUUUATT against CMAS | inactive: -0.491
CAAGCACUAUCAGAUCAAUTT against PCSK7 | inactive: 0
CAGUAUAAGUGCGAUUGUATT against PTGS2 | inactive: -0.21
GGCUGAGGGUGAAUCAGGATT against ARHGEF4 | inactive: 0.332
CCAUGAAUGAUACAACCGUTT against PRLR | inactive: 0.394
CCGGUUCUAUUUCAGCUAATT against LRIG1 | inactive: 0.102
GGUUUAUUCGAGUCCGUGATT against LIG1 | inactive: 0.722
GGAACAACUAAACCGCAUATT against SNAP23 | inactive: 0.31
GGACAGCUUUUUCCGACCATT against BARHL2 | inactive: -0.147
AACUCACUGCGGACCUUCATT against IGFALS | inactive: 0.0888
AGUUUGAGAUCGAGACAAATT against SCUBE1 | inactive: 0.673
GCCACGAAAAUCAAUGAGATT against EDF1 | inactive: 0.0783
GAGCACUACUUGUACAUGATT against GBF1 | inactive: -0.162

Sequence | median seed-adjusted z-score
GGAAUGUGACUACAACAAATT against S100A3 | inactive: -0.176
CGGUAGCACUUGACCUUUUTT against AKT1 | inactive: -0.288
CAUUCAGCUUGUCACGUCATT against THOC4 | active: -1.54
CAAGUCCUUUUAAUCCACATT against RUNX2 | inactive: 0.335
AGAUCUAGUAUGAGCUUAATT against EARS2 | inactive: 0.0463
GCACGAUUACUACUACCGATT against PNPLA1 | inactive: 0.00692
AAAGACUACUAUAAAGCUUTT against ING3 | inactive: 0.192
GGGCGAUUCUUUCCGCAAATT against TSHZ2 | inactive: -0.361
GCAACUACGUUGACUUCUATT against CTNND2 | inactive: -0.0491
AAACUGACUUUGAAGUAUUTT against PRKAB1 | inactive: 0.536
AAGGGAGUAUAUUACCAAATT against GATAD1 | inactive: 0.328
GGAUUUACUUGUCGACAAATT against ZFP91 | inactive: 0.0597
GAAGUUAACUGAUUAUCGUTT against PRDX4 | inactive: -0.188
CUAUCGAUGUAAACAAUGUTT against ZNF14 | inactive: -0.0802
GGACAGACACGUCAGCAAATT against TMEM171 | inactive: 0.278
GGACAAGACCUGUAGUAAUTT against ITGA4 | inactive: 0
GGACUUGAGUGUUCCACUUTT against ZNF471 | inactive: 0.364
CUACUGUGGGUGUCGCAUATT against UQCRFS1 | active: -1.28
CCAGUGCUGAAUAUUCAAATT against CEPT1 | inactive: 0.328
GAACAAUAAACGGCACUAUTT against ZNF787 | inactive: -0.0628
GGUGUACUAUAUAAAAAGATT against BXDC1 | inactive: 0.173
GGUUAAUAACUGCAUUGGATT against ZDHHC15 | inactive: 0.548

A portion taken from the entries so far:
Sequence | median seed-adjusted z-score
GCACGAUUACUACUACCGATT against PNPLA1 | inactive: 0.00692
AAAGACUACUAUAAAGCUUTT against ING3 | inactive: 0.192
GGGCGAUUCUUUCCGCAAATT against TSHZ2 | inactive: -0.361
GCAACUACGUUGACUUCUATT against CTNND2 | inactive: -0.0491

Copied from the list.
In median seed-adjusted z-score, GAACAAUAAACGGCACUAUTT against ZNF787 has the entry inactive: -0.0628
In median seed-adjusted z-score, CCAGUGCUGAAUAUUCAAATT against CEPT1 has the entry inactive: 0.328

Further records.

Sequence | median seed-adjusted z-score
GAAUGUAAUAGGCAGUUUATT against ZNF566 | inactive: 0.0702
GGGACAACAUUGUGACCUATT against CDH9 | inactive: -0.18
CCAAAUGAGUGUCACGAAUTT against ZNF490 | inactive: 0.00954
CCUAUUUGGUUGUCGGAAATT against SLC16A10 | inactive: -0.205
GGAACGAAUUUCAUAUACATT against ETV6 | inactive: 0.0216
CAAGAGCAAGCAAACCUAATT against OLR1 | inactive: 0
GGAAUUUGAUAGCACUCGATT against DNAJA2 | inactive: 0
GGACUCCCAUCAGUUCCUATT against MFSD4 | active: -1.89
CAGUGUGGAUACUAAUAAATT against PMVK | inactive: 0.269
GCAUGAAUCGUCUGACAGATT against CA7 | inactive: -0.0754
AGAAUGCCCUAAACCUUAUTT against KCNS2 | inactive: 0.0597
GGUUCUCGCAACUAUGGAATT against CTNNAL1 | inactive: 0.229
CCGUGACGGUUUACUAUGATT against NUP210 | inactive: 0.0904
GGAUGGAAAUAGCCUUGAATT against PTGR2 | inactive: 0.14
CCGAAAGUGAGACUCCUAATT against CBLC | inactive: -0.726
GCAAAUUAUCAGAAGAGAATT against RAD51C | inactive: -0.0724
CAAAUCCUAUAGUAUAACATT against RPS6KC1 | inactive: 0.344
GAUGCAUUCGAUGACCUGATT against PTGES2 | inactive: -0.02
CACGGUAUCUCAACCGGAATT against HGS | active: 1.16
GGAACAUGCUGGACUCCCATT against GAL3ST1 | inactive: 0.263
